# Source: publication PMC7819943, “Rice protein-binding microarrays: a tool to detect cis-acting elements near promoter regions in rice”
# The other results are listed elsewhere or left out.
# Target: T1, OsSMF1 (Oryza sativa, UniProt Q6ZLB0 1-436)
# T1 sequence: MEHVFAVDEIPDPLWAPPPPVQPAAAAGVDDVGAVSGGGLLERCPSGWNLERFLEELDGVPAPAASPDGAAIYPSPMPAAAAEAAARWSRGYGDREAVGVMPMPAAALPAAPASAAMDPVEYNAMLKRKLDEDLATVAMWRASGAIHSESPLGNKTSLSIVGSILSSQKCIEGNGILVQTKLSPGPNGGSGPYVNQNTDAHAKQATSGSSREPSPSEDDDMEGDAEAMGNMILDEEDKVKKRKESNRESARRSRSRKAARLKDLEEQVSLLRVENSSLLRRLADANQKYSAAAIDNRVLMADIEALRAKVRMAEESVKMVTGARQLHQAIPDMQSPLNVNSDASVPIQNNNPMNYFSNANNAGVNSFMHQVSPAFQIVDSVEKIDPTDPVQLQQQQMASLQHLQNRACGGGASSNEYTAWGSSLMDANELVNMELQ
# Experiment: protein-binding microarray (RPBM); PBS, 2% BSA, 51.3 ng/ul salmon testes DNA, 50 uM zinc acetate, 200 nM TF, 25 C, 1 h; high values mean tight binding
# Settings: protein: recombinant; tags: N-terminal polyhistidine and DsRed monomer fusion (pET32a); chain copies: 2; label: CyDye5-dUTP incorporated in the synthesized complementary strand; 3' TTTTT single-stranded linker to array surface; dsDNA, one strand shown
# Procedure, shortened: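 For the binding signal, per-feature fluorescence intensity was read in arbitrary units on an Axon 4000B scanner. Before scanning, a 2% BSA-blocked custom Agilent array made double-stranded with Cy5-dUTP was washed after 1 h at 25 °C with 200 nM protein and 50 µM zinc acetate. The proteins were Ni–NTA-purified transcription factors with N-terminal polyhistidine and DsRed fusions, expressed in E. coli BL21-CodonPlus.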
row,Sequence,binding signal
1,CTGAACAGCCAGCAAAGCGTCGTTCAGCTGCGTAACATCTCGGAGTCACCTAGTGCAG,23000 fluorescence intensity (a.u.)
2,TCAGCCTCAGCACCAGGGCTGACGCAGCGAGCAAGGCAAACGGAGTCACCTAGTGCAG,34900 fluorescence intensity (a.u.)
3,CCTCTCGATTCGCTGCCTCGTTGGCACCGGAAGGCGCTCTCGGAGTCACCTAGTGCAG,5120 fluorescence intensity (a.u.)
4,TATATATGTTTTACCTTCTAATAACCTGTTTTATAGCTAGCGGAGTCACCTAGTGCAG,8980 fluorescence intensity (a.u.)
5,GTGACGAAGAAAGAGGCTCCTGATTACTTTGACATAATTGCGGAGTCACCTAGTGCAG,3220 fluorescence intensity (a.u.)
6,GTCGTCTCCATCGACCTCCTACGTCATGTCCCGGCGCAGGCGGAGTCACCTAGTGCAG,25200 fluorescence intensity (a.u.)
7,TGTACTGAGAGCGTGCAGCGGCGTACGTGGTTAGCGCTTTCGGAGTCACCTAGTGCAG,3530 fluorescence intensity (a.u.)
8,AAGAAGAGGGGAAAGAGATGGTGACGTGGTCACCCTGATGCGGAGTCACCTAGTGCAG,16000 fluorescence intensity (a.u.)
9,CCCCAATTTCTATCTTCTCTCCAAAAGTGACATGGTATCACGGAGTCACCTAGTGCAG,17800 fluorescence intensity (a.u.)
10,ACCGTCCATTTCCACATCGGACGGCACCCATCTCATCTGTCGGAGTCACCTAGTGCAG,3870 fluorescence intensity (a.u.)
11,ATTGTCAAATCATATAGCAATTAGGCTTAAAAGATTCGTACGGAGTCACCTAGTGCAG,18400 fluorescence intensity (a.u.)
12,CATCCCTCACTCGCAACCCTCTCCCACCTCTGACCGTCACCGGAGTCACCTAGTGCAG,3390 fluorescence intensity (a.u.)
13,TTACCATGCTATGTCATTTTGGCCCCTTCAAAATGCATAGCGGAGTCACCTAGTGCAG,3400 fluorescence intensity (a.u.)
14,TCCTCTCCTCATCATCACTCGCTCGCTCGCTCTCGCGCTTCGGAGTCACCTAGTGCAG,3270 fluorescence intensity (a.u.)
15,AGTGGAAGCAGGTCTTTTACTGATCGATCAAGGTCTGATGCGGAGTCACCTAGTGCAG,16800 fluorescence intensity (a.u.)
16,TATTTATAACAAAATATGACGTCTTACAATATATGCATTTCGGAGTCACCTAGTGCAG,3830 fluorescence intensity (a.u.)
17,CTGAAATGACCAGAATGCCCCTCCGTCCTACCCCACAATCCGGAGTCACCTAGTGCAG,19900 fluorescence intensity (a.u.)
18,TTGACGGTATACACCAATGCATGACGCACAAGGTTTGGCCCGGAGTCACCTAGTGCAG,7940 fluorescence intensity (a.u.)
19,CGCCCGCCCAACCACCGCCGGCTCAGTCGCTCTAACACCTCGGAGTCACCTAGTGCAG,4480 fluorescence intensity (a.u.)
20,CAGATACATTTGTTTATGACGTTCCCATCGTGGAGCATGTCGGAGTCACCTAGTGCAG,3220 fluorescence intensity (a.u.)
21,TACTCTTTTGCTGCATCATCGATCGATCGCTCATCCATCGCGGAGTCACCTAGTGCAG,4110 fluorescence intensity (a.u.)

# Fetched one by one from the entries so far (three):
row,Sequence,binding signal
6,GTCGTCTCCATCGACCTCCTACGTCATGTCCCGGCGCAGGCGGAGTCACCTAGTGCAG,25200 fluorescence intensity (a.u.)
16,TATTTATAACAAAATATGACGTCTTACAATATATGCATTTCGGAGTCACCTAGTGCAG,3830 fluorescence intensity (a.u.)
5,GTGACGAAGAAAGAGGCTCCTGATTACTTTGACATAATTGCGGAGTCACCTAGTGCAG,3220 fluorescence intensity (a.u.)

# (next part)

row,Sequence,binding signal
1,CCCTAGGGTGATGACTGACGCGACTCTAAAGTTTATCGAACGGAGTCACCTAGTGCAG,5600 fluorescence intensity (a.u.)
2,AGCTTGTCGTCGTCACCGGCCTCGCCGCTGCTTGGTCCATCGGAGTCACCTAGTGCAG,5340 fluorescence intensity (a.u.)
3,TCACTGGGAGTTAAAATTTAACTCATGGTGACGTGGACGACGGAGTCACCTAGTGCAG,24500 fluorescence intensity (a.u.)
4,TCTCCCCTCTACAGTATGTCTCCATATATTCACATGTACGCGGAGTCACCTAGTGCAG,3450 fluorescence intensity (a.u.)
5,CCATTTGCAGCCCATCTTGACGTATGCAGCAGTTTCATGGCGGAGTCACCTAGTGCAG,5650 fluorescence intensity (a.u.)
6,CCTGTCCTCGCAGGCGTGCGCCTCCTCCTCGGAGACCCTGCGGAGTCACCTAGTGCAG,3640 fluorescence intensity (a.u.)
7,GCCGTAGCCAATCGCTCCACCTCGGCTCCAGCAGTCCGGCCGGAGTCACCTAGTGCAG,3150 fluorescence intensity (a.u.)
8,CCAACCATGCTTCGCAGTTGTCACAGAACGTCAACAGTGCCGGAGTCACCTAGTGCAG,3460 fluorescence intensity (a.u.)
9,CAAGGGTGTCGACATGATGAGCCACGCGCCGGCGCGTGGGCGGAGTCACCTAGTGCAG,3640 fluorescence intensity (a.u.)
10,CTCCACGTCGTCGGCACTGCCACCTCCTACGCCACCGCGGCGGAGTCACCTAGTGCAG,6340 fluorescence intensity (a.u.)
11,AGCAATAGCTATGGCAGCGGATCCGCGCCCGAGATTTCCTCGGAGTCACCTAGTGCAG,3190 fluorescence intensity (a.u.)
12,CTCTCACTGTCCGTACGTCGTCGGCTTGATCACCAACCTTCGGAGTCACCTAGTGCAG,25300 fluorescence intensity (a.u.)
13,AAAACTACATTTGCTGCTCTAGCTTAGGAGATACACAACTCGGAGTCACCTAGTGCAG,3200 fluorescence intensity (a.u.)
14,GCTCACCTCCAGCTATATATACACATCACAAGCTAGCTGCCGGAGTCACCTAGTGCAG,5050 fluorescence intensity (a.u.)
15,CGTATCATTTCGCAAATCCCGATTGGTCCCCGTGGCGCAGCGGAGTCACCTAGTGCAG,19900 fluorescence intensity (a.u.)
16,AGTTCTTCATCAATATGATTAAGTGTGACATCAGGCCTGACGGAGTCACCTAGTGCAG,4850 fluorescence intensity (a.u.)
17,TTTTGTCTTTGAAGCATCCGCTGAGCTGGGCTCGAACTAGCGGAGTCACCTAGTGCAG,3690 fluorescence intensity (a.u.)
18,CAGTTTCTAAGTGATGTGGATTAACTAAGGGTAAATTGGACGGAGTCACCTAGTGCAG,3420 fluorescence intensity (a.u.)
19,CCACCGCACTGGCAAATCAAGCGGCAGTGACGCAGAGTATCGGAGTCACCTAGTGCAG,3900 fluorescence intensity (a.u.)
20,TGGTAATTGAATACGTAAGCCGAACACTATGCTTCTAATACGGAGTCACCTAGTGCAG,3930 fluorescence intensity (a.u.)
21,GGGTGGAGGAGGAGGGAGAAGATGAAGCAAACGAGAGAGACGGAGTCACCTAGTGCAG,4720 fluorescence intensity (a.u.)
